For nine targets, log2 fold change results are on record in the supplement of paper PMC12819154, “High-throughput peptide-centric local stability assay extends protein–ligand identification to membrane proteins, tissues and bacteria” (Nature Structural & Molecular Biology, 2025).

Chains of the proteins cited; added tags and fusions are not shown. Lines headed by an entry give the natural chain unless they say otherwise; changes in a name come on top.
UniProt Q99747: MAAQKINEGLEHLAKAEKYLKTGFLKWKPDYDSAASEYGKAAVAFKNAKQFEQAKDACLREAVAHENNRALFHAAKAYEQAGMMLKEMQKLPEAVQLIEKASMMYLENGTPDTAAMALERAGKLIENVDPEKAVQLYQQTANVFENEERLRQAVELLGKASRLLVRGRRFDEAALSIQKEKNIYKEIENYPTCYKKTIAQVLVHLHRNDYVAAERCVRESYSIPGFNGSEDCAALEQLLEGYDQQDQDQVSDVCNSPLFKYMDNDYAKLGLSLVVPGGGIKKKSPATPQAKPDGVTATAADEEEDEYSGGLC
UniProt Q9BQG2: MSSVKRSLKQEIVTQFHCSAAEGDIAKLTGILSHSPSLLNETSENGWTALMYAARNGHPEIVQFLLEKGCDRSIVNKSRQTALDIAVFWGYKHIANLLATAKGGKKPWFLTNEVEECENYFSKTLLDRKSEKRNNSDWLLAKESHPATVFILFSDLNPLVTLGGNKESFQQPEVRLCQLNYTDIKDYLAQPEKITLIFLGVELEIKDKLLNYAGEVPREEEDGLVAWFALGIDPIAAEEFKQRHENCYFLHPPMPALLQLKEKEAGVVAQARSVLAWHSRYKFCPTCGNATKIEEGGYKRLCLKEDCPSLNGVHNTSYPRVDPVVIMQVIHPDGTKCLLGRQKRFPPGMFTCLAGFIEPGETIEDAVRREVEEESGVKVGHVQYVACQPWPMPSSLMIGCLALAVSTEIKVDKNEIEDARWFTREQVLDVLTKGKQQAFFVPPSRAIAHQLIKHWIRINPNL
UniProt Q99638: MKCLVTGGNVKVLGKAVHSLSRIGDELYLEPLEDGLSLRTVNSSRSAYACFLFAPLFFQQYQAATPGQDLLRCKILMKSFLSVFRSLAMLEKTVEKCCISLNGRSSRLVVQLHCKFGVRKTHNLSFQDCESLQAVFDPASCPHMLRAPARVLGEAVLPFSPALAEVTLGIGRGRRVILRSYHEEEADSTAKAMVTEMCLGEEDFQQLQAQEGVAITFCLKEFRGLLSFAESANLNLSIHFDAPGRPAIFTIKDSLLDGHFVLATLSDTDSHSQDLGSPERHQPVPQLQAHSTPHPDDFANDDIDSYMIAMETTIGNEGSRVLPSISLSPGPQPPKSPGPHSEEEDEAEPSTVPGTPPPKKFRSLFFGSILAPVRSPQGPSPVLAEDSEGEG
UniProt Q9BRY0: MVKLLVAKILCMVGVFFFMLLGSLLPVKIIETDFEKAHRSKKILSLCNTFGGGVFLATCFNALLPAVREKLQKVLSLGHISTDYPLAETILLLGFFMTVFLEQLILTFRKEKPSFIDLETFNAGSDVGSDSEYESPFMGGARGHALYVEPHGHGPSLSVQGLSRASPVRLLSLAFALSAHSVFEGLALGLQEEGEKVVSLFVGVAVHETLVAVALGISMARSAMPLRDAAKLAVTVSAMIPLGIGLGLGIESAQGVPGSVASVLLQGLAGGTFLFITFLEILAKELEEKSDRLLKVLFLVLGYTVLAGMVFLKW
UniProt Q96ST3: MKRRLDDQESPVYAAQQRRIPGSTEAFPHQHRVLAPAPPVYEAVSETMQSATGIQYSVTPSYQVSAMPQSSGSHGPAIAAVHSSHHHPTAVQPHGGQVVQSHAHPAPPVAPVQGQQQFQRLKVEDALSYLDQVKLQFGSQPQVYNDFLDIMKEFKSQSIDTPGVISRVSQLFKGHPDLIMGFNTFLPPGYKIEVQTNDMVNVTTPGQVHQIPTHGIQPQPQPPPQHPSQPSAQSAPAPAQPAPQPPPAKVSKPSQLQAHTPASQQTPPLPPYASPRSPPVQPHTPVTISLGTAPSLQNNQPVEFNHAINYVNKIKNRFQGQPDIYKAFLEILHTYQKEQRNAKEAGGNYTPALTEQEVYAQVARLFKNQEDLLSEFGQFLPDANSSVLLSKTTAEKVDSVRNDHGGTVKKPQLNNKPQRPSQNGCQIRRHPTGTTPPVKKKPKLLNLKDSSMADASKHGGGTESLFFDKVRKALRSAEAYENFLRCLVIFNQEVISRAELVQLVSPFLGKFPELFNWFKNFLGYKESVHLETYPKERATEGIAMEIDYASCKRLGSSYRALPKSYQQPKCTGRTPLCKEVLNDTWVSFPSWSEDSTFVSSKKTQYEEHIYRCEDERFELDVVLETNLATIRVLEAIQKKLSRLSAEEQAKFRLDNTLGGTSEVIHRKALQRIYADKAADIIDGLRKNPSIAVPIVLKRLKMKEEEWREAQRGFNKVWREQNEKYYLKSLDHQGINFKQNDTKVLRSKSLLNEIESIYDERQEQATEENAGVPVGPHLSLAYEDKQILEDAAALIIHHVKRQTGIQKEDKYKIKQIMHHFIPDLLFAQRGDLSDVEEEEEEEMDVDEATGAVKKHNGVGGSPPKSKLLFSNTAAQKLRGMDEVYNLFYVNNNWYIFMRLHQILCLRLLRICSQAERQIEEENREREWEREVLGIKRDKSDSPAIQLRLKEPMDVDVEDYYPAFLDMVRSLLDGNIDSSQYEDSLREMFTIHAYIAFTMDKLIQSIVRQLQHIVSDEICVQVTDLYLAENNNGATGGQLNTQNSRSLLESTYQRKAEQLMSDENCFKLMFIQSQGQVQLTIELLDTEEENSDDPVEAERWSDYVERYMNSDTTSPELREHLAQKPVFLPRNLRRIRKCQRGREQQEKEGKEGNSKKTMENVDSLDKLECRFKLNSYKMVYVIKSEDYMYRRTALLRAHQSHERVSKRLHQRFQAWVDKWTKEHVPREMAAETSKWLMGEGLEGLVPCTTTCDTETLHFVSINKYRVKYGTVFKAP
UniProt Q9BUL5: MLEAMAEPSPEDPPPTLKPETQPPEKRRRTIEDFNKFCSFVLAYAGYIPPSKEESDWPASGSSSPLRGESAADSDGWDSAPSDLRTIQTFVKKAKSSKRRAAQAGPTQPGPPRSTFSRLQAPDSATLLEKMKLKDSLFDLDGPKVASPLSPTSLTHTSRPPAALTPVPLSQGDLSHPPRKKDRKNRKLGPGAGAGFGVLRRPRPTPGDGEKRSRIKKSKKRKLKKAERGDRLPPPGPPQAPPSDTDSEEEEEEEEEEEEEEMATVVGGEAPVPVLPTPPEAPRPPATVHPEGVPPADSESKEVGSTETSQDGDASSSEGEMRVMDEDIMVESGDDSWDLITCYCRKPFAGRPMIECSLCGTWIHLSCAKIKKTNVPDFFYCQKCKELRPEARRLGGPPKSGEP
UniProt Q99966: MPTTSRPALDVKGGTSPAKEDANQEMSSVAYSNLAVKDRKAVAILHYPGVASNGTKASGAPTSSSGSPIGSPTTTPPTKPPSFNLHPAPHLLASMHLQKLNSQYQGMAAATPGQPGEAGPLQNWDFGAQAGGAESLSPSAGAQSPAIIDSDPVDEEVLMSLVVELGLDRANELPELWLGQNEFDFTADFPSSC
UniProt Q9BRQ8: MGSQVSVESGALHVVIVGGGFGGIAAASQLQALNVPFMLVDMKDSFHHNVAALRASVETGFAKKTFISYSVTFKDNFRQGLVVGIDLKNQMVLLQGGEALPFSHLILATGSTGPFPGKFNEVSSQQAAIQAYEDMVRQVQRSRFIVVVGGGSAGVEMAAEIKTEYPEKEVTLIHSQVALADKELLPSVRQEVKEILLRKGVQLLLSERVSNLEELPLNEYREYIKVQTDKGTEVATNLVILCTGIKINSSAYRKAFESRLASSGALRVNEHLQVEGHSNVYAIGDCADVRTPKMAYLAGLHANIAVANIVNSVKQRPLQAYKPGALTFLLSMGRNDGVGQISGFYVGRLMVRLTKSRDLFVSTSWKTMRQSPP
UniProt Q99683: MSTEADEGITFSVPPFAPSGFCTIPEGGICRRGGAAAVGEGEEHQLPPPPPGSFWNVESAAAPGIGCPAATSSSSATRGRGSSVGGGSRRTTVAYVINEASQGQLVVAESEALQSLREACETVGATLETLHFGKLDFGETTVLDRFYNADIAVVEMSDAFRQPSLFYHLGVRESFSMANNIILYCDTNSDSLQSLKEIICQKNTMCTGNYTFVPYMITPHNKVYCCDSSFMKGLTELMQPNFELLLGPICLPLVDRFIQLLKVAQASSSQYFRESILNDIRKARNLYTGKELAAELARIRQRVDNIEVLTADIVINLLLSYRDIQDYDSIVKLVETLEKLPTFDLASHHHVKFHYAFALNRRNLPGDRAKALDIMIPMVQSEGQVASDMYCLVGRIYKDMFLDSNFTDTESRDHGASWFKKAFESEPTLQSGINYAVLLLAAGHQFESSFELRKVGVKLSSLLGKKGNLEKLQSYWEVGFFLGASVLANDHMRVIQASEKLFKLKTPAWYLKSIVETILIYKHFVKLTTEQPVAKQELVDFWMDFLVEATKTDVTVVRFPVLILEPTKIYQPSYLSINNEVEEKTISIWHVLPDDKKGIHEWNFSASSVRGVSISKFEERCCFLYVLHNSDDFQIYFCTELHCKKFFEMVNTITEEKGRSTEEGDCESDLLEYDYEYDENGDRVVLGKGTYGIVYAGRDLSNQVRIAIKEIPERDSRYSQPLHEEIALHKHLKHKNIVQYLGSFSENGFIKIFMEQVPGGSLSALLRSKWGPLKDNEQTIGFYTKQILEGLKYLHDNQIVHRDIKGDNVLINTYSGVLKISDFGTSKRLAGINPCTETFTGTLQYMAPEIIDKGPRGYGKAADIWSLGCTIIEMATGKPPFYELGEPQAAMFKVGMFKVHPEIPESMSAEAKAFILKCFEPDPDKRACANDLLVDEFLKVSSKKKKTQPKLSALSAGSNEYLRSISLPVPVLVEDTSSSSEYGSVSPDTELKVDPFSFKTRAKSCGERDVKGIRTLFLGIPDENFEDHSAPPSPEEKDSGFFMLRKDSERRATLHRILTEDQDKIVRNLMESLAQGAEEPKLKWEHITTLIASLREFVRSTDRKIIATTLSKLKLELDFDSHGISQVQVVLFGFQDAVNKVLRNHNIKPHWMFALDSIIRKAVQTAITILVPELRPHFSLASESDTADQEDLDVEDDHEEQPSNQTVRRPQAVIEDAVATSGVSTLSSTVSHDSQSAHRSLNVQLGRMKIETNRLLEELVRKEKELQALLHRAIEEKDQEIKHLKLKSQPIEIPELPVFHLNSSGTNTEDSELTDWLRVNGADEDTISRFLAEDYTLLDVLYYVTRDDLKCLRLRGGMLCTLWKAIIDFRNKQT

The other results are listed elsewhere or left out. Most entries show no effect beyond the scatter of the controls.

Compound in the assay: Cc1nc(Nc2ncc(C(=O)Nc3c(C)cccc3Cl)s2)cc(N2CCN(CCO)CC2)n1 [dasatinib]
In words: log2 fold change of tryptic peptide abundance, ligand vs vehicle (limited proteolysis) (log2 ratio); higher = more trypsin-susceptible (destabilized). The settings on record: ligand concentration: 5 uM; sample: K562 cleared lysate.
Consider “NAPG (peptide sequence: TIAQVLVHLHRNDYVAAER, peptide start residue: 197) (UniProt Q99747)”, for which the log2 fold change is -0.571. Turning to “NUDT12 (peptide sequence: LLNYAGEVPR, peptide start residue: 209) (UniProt Q9BQG2)”, the log2 fold change was 0.298. Then “RAD9A (peptide sequence: TVEKCCISLNGR, peptide start residue: 93) (UniProt Q99638)”, with -0.356. Next, “SLC39A3 (peptide sequence: GHALYVEPHGHGPSLSVQGLSR, peptide start residue: 143) (UniProt Q9BRY0)”: 0.00413; “SIN3A (peptide sequence: RLDDQESPVYAAQQR, peptide start residue: 4) (UniProt Q96ST3)”: 0.177. Regarding “PHF23 (peptide sequence: LGPGAGAGFGVLR, peptide start residue: 188) (UniProt Q9BUL5)”, the log2 fold change amounted to 0.588. For the target “UniProt Q99966 (peptide sequence: AVAILHYPGVASNGTK, peptide start residue: 41)”, the log2 fold change was -0.236.

For “AIFM2 (peptide sequence: VNEHLQVEGHSNVYAIGDCADVR, peptide start residue: 268) (UniProt Q9BRQ8)”, the log2 fold change was -0.174.

For “UniProt Q99683 (peptide sequence: ILTEDQDKIVR, peptide start residue: 1057)”, the log2 fold change is -0.279.
